Source: PubChem BioAssay AID1259425 (University of Nebraska Medical Center, 2018)
The whole screen tested about 14,000 reagents; below is a random part of them. Further read-outs or replicates are left out here. The record does not give: the time to read-out.

- Screen: 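Find knockdowns that reproduce the gene expression pattern seen when KSR1 is lost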 (primary screen)
- System: HCT116 human colon cancer cells
- Knock-down reagent: siRNA pool against human genes, 50 nM siRNA
- Measurement: 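After 50 nM siRNA pool, branched-DNA assay measures six marker transcripts per well, minus blank, normalised to the geometric mean of two housekeeping transcripts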
- Scale: BNIP3L mRNA: higher = more BNIP3L transcript after knockdown; NDRG1 mRNA: higher = more NDRG1 transcript after knockdown

After knock-down of MLF1 [SID364002432], the record shows BNIP3L mRNA, set 1 = 0.148; NDRG1 mRNA, set 1 = 0.0433.
Depletion of NXPH4 [SID363997920] gave: BNIP3L mRNA, set 1 = 0.174; NDRG1 mRNA, set 1 = 0.192.
For SUSD1 [SID364002471] the deposit lists BNIP3L mRNA, set 1 = 0.0695; NDRG1 mRNA, set 1 = 0.202.
ZNF165 [SID363994548] showed BNIP3L mRNA, set 1 = 0.125; NDRG1 mRNA, set 1 = 0.0929.
With knock-down of PRKAA1 [SID363997074] the results were BNIP3L mRNA, set 1 = 0.0916; NDRG1 mRNA, set 1 = 0.15.
Silencing of RPL11 [SID363992258] resulted in: BNIP3L mRNA, set 1 = 0.105; NDRG1 mRNA, set 1 = 0.119.
Depletion of ITIH1 [SID363993416] came out at: BNIP3L mRNA, set 1 = 0.0713; NDRG1 mRNA, set 1 = 0.18.
After knock-down of USP44 [SID364003803], the screen gave BNIP3L mRNA, set 1 = 0.0649; NDRG1 mRNA, set 1 = 0.105.
For TPD52 [SID363996016] the deposit lists BNIP3L mRNA, set 1 = 0.109; NDRG1 mRNA, set 1 = 0.0955.
For GAL3ST4 [SID364002935] the deposit lists BNIP3L mRNA, set 1 = 0.122; NDRG1 mRNA, set 1 = 0.248.
AMPD1 [SID363991375] scored BNIP3L mRNA, set 1 = 0.0978; NDRG1 mRNA, set 1 = 0.144.
MKNK2 [SID364000368] showed BNIP3L mRNA, set 1 = 0.0579; NDRG1 mRNA, set 1 = 0.0572.
With knock-down of TSPAN5 [SID363996609] the results were BNIP3L mRNA, set 1 = 0.0661; NDRG1 mRNA, set 1 = 0.295.
For P2RX7 [SID363993731], the entry reads BNIP3L mRNA, set 1 = 0.0767; NDRG1 mRNA, set 1 = 0.364.

Entries listed so far whose target name starts with P or p (2):
PRKAA1 [SID363997074] | BNIP3L mRNA, set 1 = 0.0916; NDRG1 mRNA, set 1 = 0.15
P2RX7 [SID363993731] | BNIP3L mRNA, set 1 = 0.0767; NDRG1 mRNA, set 1 = 0.364

The listing continues.
Knock-down of MSH4 [SID363993618] came out at: BNIP3L mRNA, set 1 = 0.0364; NDRG1 mRNA, set 1 = 0.182.
With knock-down of SDCCAG8 [SID363997430], the record shows BNIP3L mRNA, set 1 = 0.11; NDRG1 mRNA, set 1 = 0.099.
After knock-down of WIZ [SID364005491], the record shows BNIP3L mRNA, set 1 = 0.0823; NDRG1 mRNA, set 1 = 0.164.
Silencing of STX8 [SID363995804] gave: BNIP3L mRNA, set 1 = 0.126; NDRG1 mRNA, set 1 = 2.
With knock-down of MRPS28 [SID363998553], the screen gave BNIP3L mRNA, set 1 = 0.061; NDRG1 mRNA, set 1 = 0.217.
Against EZH2 [SID363995438], the entry reads BNIP3L mRNA, set 1 = 0.0811; NDRG1 mRNA, set 1 = 0.347.
CLXN [SID364002898] scored BNIP3L mRNA, set 1 = 0.15; NDRG1 mRNA, set 1 = 0.112.
ZNF678 [SID364005604] gave BNIP3L mRNA, set 1 = 0.128; NDRG1 mRNA, set 1 = 0.17.
GDF15 [SID363995815] gave BNIP3L mRNA, set 1 = 0.154; NDRG1 mRNA, set 1 = 0.219.
Knock-down of TREML2 [SID364003074] resulted in: BNIP3L mRNA, set 1 = 0.15; NDRG1 mRNA, set 1 = 0.346.
Knock-down of CNTF [SID363991932] resulted in: BNIP3L mRNA, set 1 = 0.131; NDRG1 mRNA, set 1 = 0.351.
After knock-down of PRIM2 [SID363992231] the results were BNIP3L mRNA, set 1 = 0.0626; NDRG1 mRNA, set 1 = 0.104.
Silencing of ATP7A [SID363991390] came out at: BNIP3L mRNA, set 1 = 0.11; NDRG1 mRNA, set 1 = 0.293.
After knock-down of TMEM50A [SID363998743], the record shows BNIP3L mRNA, set 1 = 0.258; NDRG1 mRNA, set 1 = 0.578.
